In patent US8067602B2, “Asymmetric cyanine fluorescent dyes, compositions and their use in staining biological samples” (Shenzhen Mindray Bio-Medical Electronics Co., Ltd., priority 2008, dated 2011):

What was measured:
salmon sperm DNA = test: Fluorescence intensity of dye in PBS with salmon sperm DNA (excitation 633 nm); format: binding; settings: room temperature
Description: An amount of Dye-1 was accurately weighed and sufficiently dissolved in 2.5 mL methanol/ethylene glycol (50:50 vol/vol) to prepare a dye solution at a concentration of 5 mM. This solution was filtered before use. Separate amounts of salmon sperm DNA were weighed and dissolved in PBS to obtain PBS buffers containing 3 mg/mL, 1 mg/mL, 0.3 mg/mL, 0.1 mg/mL of DNA. 2-μL aliquots of the prepared 5 mM dye solution were accurately measured and respectively combined in 1 mL PBS with 1 μL of the PBS buffers containing different concentrations of DNA. After reacting for a period of time, the complexes were detected for their emission spectra at the selected excitation wavelength of 633 nm. The detection temperature was at room temperature. The instrument used was fluorescence spectrophotometer Model FL-4500.
FIG. 2 is a comparison of the relative fluorescence strength of Dye-1 in PBS before and after it is bound with DNA.
(§1) The detection procedures followed were those described in Example 10 and Example 11. The fluorescence spectra for the complexes of Dye-2 with different concentrations of DNA or RNA are shown in FIG. 5 and FIG. 6, respectively. The comparisons of fluorescence for Dye-2 before and after it is bound with DNA or with RNA in PBS are shown in FIG. 7 and FIG. 8, respectively.
The detection procedures followed were those described in Example 10 and Example 11. The comparisons of fluorescence for Dye-3 before and after it bound with DNA or with RNA in PBS are shown in FIG. 9 and FIG. 10, respectively.
Table 1 compares the ratios of increase in fluorescence for Dye-1, Dye-2 and Dye-3 after vs before they bound with salmon sperm DNA in PBS.

[1] = tested on: soft-shelled turtle (Trionyx sinensis) liver RNA; test: Fluorescence intensity of dye in PBS with soft-shelled turtle liver RNA (excitation 633 nm); format: binding; settings: room temperature
Description: An amount of Dye-1 was accurately weighed and sufficiently dissolved in 2.5 mL methanol/ethylene glycol (50:50 vol/vol) to prepare a dye solution at a concentration of 5 mM. This solution was filtered before use. Separate amounts of soft-shelled turtle (Trionyx sinensis) liver RNA were weighed and dissolved in PBS to obtain PBS buffers containing 30 μg/mL, 10 μg/mL, 3 μg/mL, 1 μg/mL of RNA. 2-μL aliquots of the prepared 5 mM dye solution were accurately measured and respectively combined in 1 mL PBS with 1 μL of the PBS buffers containing different concentrations of RNA. After reacting for a period of time, the complexes were detected for their emission spectra at the selected excitation wavelength of 633 nm. The detection temperature was at room temperature. The instrument used was fluorescence spectrophotometer Model FL-4500.
FIG. 4 is a comparison of the relative fluorescence strength of Dye-1 in PBS before and after it is bound with RNA. As can likewise be seen in the figure, when Dye-1 formed complexes with RNA, there occurred a rapid increase in fluorescence intensity accompanied by a certain degree of red shift of fluorescence, with the maximum […] peak at about 655 nm in the near-infrared region, which can avoid the interference from the background fluorescence of the organisms per se and therefore improve the accuracy of detection.
as §1
The detection procedures followed were those described in Example 10 and Example 11. The comparisons of fluorescence for Dye-3 before and after it bound with DNA or with RNA in PBS are shown in FIG. 9 and FIG. 10, respectively. […]

Compound | maximum excitation peak of dye/DNA complex (salmon sperm DNA) | maximum excitation peak of dye/RNA complex [1]
OCCN1C=C/C(=C\C=C\c2sc3ccccc3[n+]2CCOc2ccccc2)c2ccccc21.[Br-] [Dye-3] | > 650 nm | > 650 nm
CCOC(=O)CCCN1C=C/C(=C\C=C\c2sc3ccccc3[n+]2CCO)c2ccccc21.[Br-] [Dye-2] | > 650 nm | > 650 nm
CCOC(=O)CCCCC[n+]1c(/C=C/C=C2\C=CN(Cc3ccccc3)c3ccccc32)sc2ccccc21.[Br-] [Dye-1] | about 654 nm | about 655 nm
